Laboratory results: PubChem BioAssay AID1259308 (NCATS, 2017)
Shown is one part, drawn at random, of about 59,000 reagents tested. About 1,510 of them (2.6%) were called active. 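Calls use total luciferase alone and ignore viability, so some active siRNAs may act by altering cell number.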 Unmarked entries are inactive. The numbers tell different reagents against one gene apart. Not all columns of the deposit are shown.

Test: 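Genes whose loss raises luciferase production in HEK293 cells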 (primary screen)
Cells: human HEK293 embryonic kidney cells stably expressing firefly luciferase (HEK-CMV-Luc2-Hygro)
Reagents: single siRNA against human genes, 0.8 pmol siRNA per well
Duration: 72 h
Read-out: 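Luciferase light (ONE-Glo) measured on one replicate plate set and viability (CellTiter-Glo) on the other, scaled to a negative control siRNA, with robust z-scores and luciferase per cell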
Direction: total luciferase, z-score and total luciferase, % of control: higher = more reporter protein produced
Call rule: 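An siRNA counts as active if its total luciferase robust z-score exceeds 3; genes with two or more such siRNAs out of three were retested with fresh siRNAs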
Meaning of the calls: active = raised luciferase; inactive = no rise

ARPIN (GeneID 348110) #1
- total luciferase, z-score: 2.64
- total luciferase, % of control: 134

ARPIN (GeneID 348110) #2
- total luciferase, z-score: 1.15
- total luciferase, % of control: 105

ARPIN (GeneID 348110) #3
- total luciferase, z-score: 0.406
- total luciferase, % of control: 90

VNN2 (GeneID 8875) #1
- total luciferase, z-score: -1.33
- total luciferase, % of control: 55.5

VNN2 (GeneID 8875) #2
- total luciferase, z-score: 1.63
- total luciferase, % of control: 114

VNN2 (GeneID 8875) #3
- total luciferase, z-score: -0.29
- total luciferase, % of control: 76.1

MFN2 (GeneID 9927) #1
- total luciferase, z-score: -1.26
- total luciferase, % of control: 56.9

MFN2 (GeneID 9927) #2
- total luciferase, z-score: 3.36 (active)
- total luciferase, % of control: 149

MFN2 (GeneID 9927) #3
- total luciferase, z-score: -0.884
- total luciferase, % of control: 64.3

Reformatted: 3 of the entries above.
| gene symbol | reagent no. | total luciferase, z-score | total luciferase, % of control |
| --- | --- | --- | --- |
| VNN2 (GeneID 8875) | 3 | -0.29 | 76.1 |
| MFN2 (GeneID 9927) | 1 | -1.26 | 56.9 |
| MFN2 (GeneID 9927) | 2 | 3.36 (active) | 149 |

Additional reagents follow:
EEF1B2P5 (GeneID 442227) #1
- total luciferase, z-score: -1.1
- total luciferase, % of control: 60

EEF1B2P5 (GeneID 442227) #2
- total luciferase, z-score: -1.02
- total luciferase, % of control: 61.6

EEF1B2P5 (GeneID 442227) #3
- total luciferase, z-score: 5.48 (active)
- total luciferase, % of control: 191

MMP7 (GeneID 4316) #1
- total luciferase, z-score: 1.7
- total luciferase, % of control: 116

MMP7 (GeneID 4316) #2
- total luciferase, z-score: -0.011
- total luciferase, % of control: 81.7

MMP7 (GeneID 4316) #3
- total luciferase, z-score: 0.0764
- total luciferase, % of control: 83.4

KMO (GeneID 8564) #1
- total luciferase, z-score: 3.91 (active)
- total luciferase, % of control: 160

KMO (GeneID 8564) #2
- total luciferase, z-score: -0.497
- total luciferase, % of control: 72

KMO (GeneID 8564) #3
- total luciferase, z-score: -0.179
- total luciferase, % of control: 78.3

KCNQ5 (GeneID 56479) #1
- total luciferase, z-score: 0.652
- total luciferase, % of control: 94.8

KCNQ5 (GeneID 56479) #2
- total luciferase, z-score: 0.885
- total luciferase, % of control: 99.5

KCNQ5 (GeneID 56479) #3
- total luciferase, z-score: 1.07
- total luciferase, % of control: 103
